Experimental data as given in paper doi:10.1101/2022.09.13.507836.
No constants are given. Whether binding was seen depends on the method and setting. Binding seen in cells or lysates may run through a third protein. Some binding calls cover weakened binding; strength is not graded here. Sequences can lack the tags named with a protein.

Sequences of proteins named here, by UniProt entry; tags and fusion partners are left off.
UniProt Q9SP32: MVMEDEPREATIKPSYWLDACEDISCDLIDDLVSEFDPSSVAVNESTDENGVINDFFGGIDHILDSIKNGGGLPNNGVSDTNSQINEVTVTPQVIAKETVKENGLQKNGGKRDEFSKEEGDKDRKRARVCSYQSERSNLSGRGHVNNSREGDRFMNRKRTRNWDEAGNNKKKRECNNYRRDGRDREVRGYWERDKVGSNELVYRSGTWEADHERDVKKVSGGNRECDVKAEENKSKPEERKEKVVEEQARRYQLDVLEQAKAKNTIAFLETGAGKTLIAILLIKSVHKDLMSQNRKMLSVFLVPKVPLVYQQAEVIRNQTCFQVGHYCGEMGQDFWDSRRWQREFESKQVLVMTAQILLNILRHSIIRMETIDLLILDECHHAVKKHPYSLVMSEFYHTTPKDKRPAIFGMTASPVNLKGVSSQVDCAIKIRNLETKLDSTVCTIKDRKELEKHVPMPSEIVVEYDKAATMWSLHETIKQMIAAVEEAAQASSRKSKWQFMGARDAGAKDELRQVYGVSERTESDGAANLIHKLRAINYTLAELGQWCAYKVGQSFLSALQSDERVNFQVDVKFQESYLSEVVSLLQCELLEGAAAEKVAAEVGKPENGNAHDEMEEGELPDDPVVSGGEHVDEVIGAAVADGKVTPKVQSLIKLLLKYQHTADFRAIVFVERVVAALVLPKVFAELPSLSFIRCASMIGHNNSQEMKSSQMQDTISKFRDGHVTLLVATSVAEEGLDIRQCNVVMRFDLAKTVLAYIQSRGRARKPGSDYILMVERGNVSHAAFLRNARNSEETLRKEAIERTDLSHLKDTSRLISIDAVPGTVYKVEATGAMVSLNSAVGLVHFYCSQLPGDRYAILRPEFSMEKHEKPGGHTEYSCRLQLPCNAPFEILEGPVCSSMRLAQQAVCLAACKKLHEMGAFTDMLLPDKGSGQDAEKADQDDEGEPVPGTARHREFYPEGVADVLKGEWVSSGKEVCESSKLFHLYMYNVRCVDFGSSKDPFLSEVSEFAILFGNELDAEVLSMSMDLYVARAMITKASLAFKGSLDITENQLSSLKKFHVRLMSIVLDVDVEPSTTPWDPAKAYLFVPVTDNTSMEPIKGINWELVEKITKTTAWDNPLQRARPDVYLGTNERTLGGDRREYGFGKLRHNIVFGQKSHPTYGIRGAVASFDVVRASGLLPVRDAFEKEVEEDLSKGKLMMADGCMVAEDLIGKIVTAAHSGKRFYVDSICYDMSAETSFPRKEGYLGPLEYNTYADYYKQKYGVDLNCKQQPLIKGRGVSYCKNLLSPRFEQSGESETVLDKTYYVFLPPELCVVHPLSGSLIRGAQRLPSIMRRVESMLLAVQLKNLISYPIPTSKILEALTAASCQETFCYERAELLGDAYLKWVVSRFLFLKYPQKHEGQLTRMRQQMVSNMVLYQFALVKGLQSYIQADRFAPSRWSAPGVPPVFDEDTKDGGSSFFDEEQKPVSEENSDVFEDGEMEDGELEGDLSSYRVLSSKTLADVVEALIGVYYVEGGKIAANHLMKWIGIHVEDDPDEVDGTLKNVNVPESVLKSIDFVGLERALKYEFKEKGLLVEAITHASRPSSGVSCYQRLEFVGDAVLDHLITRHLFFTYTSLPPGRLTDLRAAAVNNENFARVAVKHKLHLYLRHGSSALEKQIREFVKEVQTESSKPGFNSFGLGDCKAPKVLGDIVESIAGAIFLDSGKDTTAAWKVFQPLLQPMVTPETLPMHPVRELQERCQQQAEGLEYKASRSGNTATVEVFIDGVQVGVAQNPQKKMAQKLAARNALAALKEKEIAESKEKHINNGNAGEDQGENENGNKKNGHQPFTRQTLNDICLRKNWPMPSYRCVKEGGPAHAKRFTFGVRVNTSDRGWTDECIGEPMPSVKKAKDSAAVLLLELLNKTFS

T1: cYFP-SE (Arabidopsis) (UniProt Q9ZVD0)
T1 sequence: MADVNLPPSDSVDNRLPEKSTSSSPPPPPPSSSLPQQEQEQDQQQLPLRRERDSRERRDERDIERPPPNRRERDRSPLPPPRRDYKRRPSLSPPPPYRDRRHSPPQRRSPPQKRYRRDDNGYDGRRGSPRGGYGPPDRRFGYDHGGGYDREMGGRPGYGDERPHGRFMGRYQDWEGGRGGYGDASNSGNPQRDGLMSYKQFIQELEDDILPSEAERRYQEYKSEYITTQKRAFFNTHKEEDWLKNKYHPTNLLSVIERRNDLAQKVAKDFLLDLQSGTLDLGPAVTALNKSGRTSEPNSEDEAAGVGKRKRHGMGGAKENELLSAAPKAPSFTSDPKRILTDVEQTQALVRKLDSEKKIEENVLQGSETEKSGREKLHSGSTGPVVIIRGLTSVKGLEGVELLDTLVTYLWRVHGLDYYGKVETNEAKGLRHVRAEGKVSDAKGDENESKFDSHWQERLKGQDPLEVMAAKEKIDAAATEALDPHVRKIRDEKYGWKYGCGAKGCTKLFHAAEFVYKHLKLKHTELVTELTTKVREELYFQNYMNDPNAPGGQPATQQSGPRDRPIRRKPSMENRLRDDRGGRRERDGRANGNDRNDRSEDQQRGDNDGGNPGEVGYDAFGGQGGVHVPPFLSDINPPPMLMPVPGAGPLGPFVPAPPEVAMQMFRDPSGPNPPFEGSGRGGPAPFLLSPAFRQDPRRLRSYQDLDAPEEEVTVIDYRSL


Assays:
cYFP-SE (Arabidopsis) = target: T1, cYFP-SE (Arabidopsis); assay: split reporter
nYFP-DCL1 (Arabidopsis) = nYFP-DCL1 (Arabidopsis) (UniProt Q9SP32); assay: split reporter

| binding (cYFP-SE (Arabidopsis)) | binding (nYFP-DCL1 (Arabidopsis)) | Molecule |
| --- | --- | --- |
| binds | – | nYFP-DCL1 (from UniProt Q9SP32 1-1909) |
| – | binds | cYFP-HYL1 (protein, UniProt O04492 1-419) MTSTDVSSGVSNCYVFKSRLQEYAQKYKLPTPVYEIVKEGPSHKSLFQSTVILDGVRYNSLPGFFNRKAAEQSAAEVALRELAKSSELSQCVSQPVHETGLCKNLLQEYAQKMNYAIPLYQCQKVETLGRVTQFTCTVEIGGIKYTGAATRTKKDAEISAGRTALLAIQSDTKNNLANYNTQLTVLPCEKKTIQAAIPLKETVKTLKARKAQFKKKAQKGKRTVAKNPEDIIIPPQPTDHCQNDQSEKIETTPNLEPSSCMNGLKEAAFGSVETEKIETTPNLEPPSCMNGLKEAAFGSVETEKIETTPNLEPPSCMNGLKEAAFGSVETEKIETTPNLEPSSCMNGLKEAAFGSVETEKIETTPNLEPPSCMNGLKEAAFGSVETEKIETTPNLESSSCMSGLKEAAFGSVETEASHA |
